# PubChem BioAssay AID686943, Drosophila RNAi Screening Center | 2013
# Assay: 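Search across the genome for regulators of signalling from receptor tyrosine kinase to ERK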 (primary screen)
# Cell system: Drosophila S2R+ haemocyte-like cells expressing YFP-tagged ERK (Rolled)
# Reagents: long dsRNA against Drosophila genes
# Challenge: insulin stimulation versus unstimulated cells; dose and duration not given
# Measured: 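Per-plate z-scores of phospho-ERK immunostaining normalised to YFP-tagged ERK, measured with and without insulin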
# Scale: replicate 1, z-score of dpERK with insulin and replicate 2, z-score of dpERK with insulin: higher = more active ERK per ERK-YFP after insulin; replicate 1, z-score of dpERK under basal conditions: higher = more basal active ERK per ERK-YFP; replicate 1, z-score of ERK-YFP with insulin: higher = more YFP-tagged ERK signal
# The deposit covers about 23,000 reagents; below is an unselected part of those that have a named target and a result. 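Extra replicates exist only for a retested subset of genes; insulin dose and duration not given; both raised and lowered dpERK matter.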 The numbers tell different reagents against one gene apart. Not given: the amount of reagent, the time to read-out.
predicted target,reagent,"replicate 1, z-score of dpERK with insulin","replicate 2, z-score of dpERK with insulin","replicate 1, z-score of dpERK under basal conditions","replicate 1, z-score of ERK-YFP with insulin"
CG16772,1,0.43,0.1,0.65,-0.37
CG31251,1,-0.54,-1.03,0.63,2.08
CG10748,1,0.4,-0.05,0.63,0.1
CG15543,1,0.42,0.2,-0.82,-0.08
TwdlK,1,-1.6,-4.26,-1.45,-2.79
CG9649,1,0.48,0.18,0.04,-0.05
PGRP-SD,1,1.1,0.37,,-0.36
WASp,1,-0.14,-0.02,0.06,0.35
H,1,0.88,0.22,0.85,0.19
CG12224,1,0.8,0,0.63,-0.6
yin,1,0.34,0.17,0.15,-1.65
yin,2,0.06,-0.11,0.24,0.6
para,1,0.27,0.1,0.21,0.44
para,2,0.84,0.26,0.06,-0.19
dbf,1,-0.05,0.26,-0.83,-0.58
Vha14-1,1,0.38,-0.12,0.19,-0.67
CG13360,1,1.54,0.68,0.09,0.34
Dyrk2,1,1.61,1.05,1,-0.49
CG31788,1,-0.08,0.44,2.19,-0.51
CG5731,1,0.02,-0.52,-1.18,0.96
Arc1,1,-3.86,-4.23,-1.44,-0.58
CG31810,1,0.61,-0.01,0.83,0.9

Continued (3 carried over from the part before).
predicted target,reagent,"replicate 1, z-score of dpERK with insulin","replicate 2, z-score of dpERK with insulin","replicate 1, z-score of dpERK under basal conditions","replicate 1, z-score of ERK-YFP with insulin"
CG5731,1,0.02,-0.52,-1.18,0.96
Arc1,1,-3.86,-4.23,-1.44,-0.58
CG31810,1,0.61,-0.01,0.83,0.9
Mst57Dc,1,0.55,0,0.18,-0.28
CG9702,1,0.23,-0.15,-0.32,0.43
TrxT,1,0.73,0.99,-0.48,0
CG16863,1,-0.39,-0.08,1.05,-0.44
Mulk,1,-0.59,-1.14,1.42,0.4
5PtaseI,1,0.43,-0.43,-0.61,1.1
5PtaseI,2,0.56,0.77,0.83,-0.35
hiro,1,1.04,-0.48,1.45,-0.72
PpD5,1,-0.36,-0.15,0.86,0.37
CG11882,1,0.57,0.42,0.01,0.34
CG43111,1,0.24,0.15,-0.38,-0.08
Hap40,1,1.16,0.71,0.16,-0.25
CG5989,1,0.56,0.87,-0.22,-0.28
CG10953,1,1.03,0.36,0.27,0.4
CG34221,1,0.29,-0.6,-0.14,0.29
Acbp4,1,0.42,-0.45,-0.76,0.25
Or85e,1,0.73,-0.14,0.05,-0.76
